The other results are listed elsewhere or left out. Small differences around the control level are noise.
Compound: CN[C@@H]1C[C@H]2O[C@@](C)([C@@H]1OC)n1c3ccccc3c3c4c(c5c6ccccc6n2c5c31)C(=O)NC4 [staurosporine]
Experiment: log2 fold change of tryptic peptide abundance, ligand vs vehicle (limited proteolysis) (log2 ratio); higher = more trypsin-susceptible (destabilized)
Details: ligand concentration: 20 uM; sample: K562 cleared lysate; digestion: 4 min, 22 C (HT-PELSA RT4min, Orbitrap Astral)

The chains behind the UniProt entries cited, without tags or fusion partners. Where a name states a change or a piece, a line headed by the entry shows the natural chain unless it says otherwise.
UniProt Q96S21: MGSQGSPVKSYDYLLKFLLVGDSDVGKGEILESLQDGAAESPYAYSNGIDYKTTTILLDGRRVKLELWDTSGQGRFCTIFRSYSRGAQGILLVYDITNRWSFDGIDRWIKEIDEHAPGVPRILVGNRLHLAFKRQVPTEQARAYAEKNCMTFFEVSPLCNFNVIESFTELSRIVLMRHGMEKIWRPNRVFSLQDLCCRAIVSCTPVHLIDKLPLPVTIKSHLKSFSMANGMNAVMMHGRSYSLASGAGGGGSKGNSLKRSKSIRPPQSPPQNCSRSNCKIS
UniProt Q96S82: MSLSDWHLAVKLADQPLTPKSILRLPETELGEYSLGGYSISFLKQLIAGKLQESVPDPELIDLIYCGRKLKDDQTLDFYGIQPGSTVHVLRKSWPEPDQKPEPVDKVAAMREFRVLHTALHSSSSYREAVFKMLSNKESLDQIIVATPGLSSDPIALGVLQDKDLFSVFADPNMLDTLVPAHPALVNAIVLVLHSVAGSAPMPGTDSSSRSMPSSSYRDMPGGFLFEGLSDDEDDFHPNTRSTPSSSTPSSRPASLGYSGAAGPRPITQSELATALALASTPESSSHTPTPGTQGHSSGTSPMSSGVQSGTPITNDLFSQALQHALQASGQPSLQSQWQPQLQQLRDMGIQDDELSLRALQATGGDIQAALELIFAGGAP
UniProt Q96RS6: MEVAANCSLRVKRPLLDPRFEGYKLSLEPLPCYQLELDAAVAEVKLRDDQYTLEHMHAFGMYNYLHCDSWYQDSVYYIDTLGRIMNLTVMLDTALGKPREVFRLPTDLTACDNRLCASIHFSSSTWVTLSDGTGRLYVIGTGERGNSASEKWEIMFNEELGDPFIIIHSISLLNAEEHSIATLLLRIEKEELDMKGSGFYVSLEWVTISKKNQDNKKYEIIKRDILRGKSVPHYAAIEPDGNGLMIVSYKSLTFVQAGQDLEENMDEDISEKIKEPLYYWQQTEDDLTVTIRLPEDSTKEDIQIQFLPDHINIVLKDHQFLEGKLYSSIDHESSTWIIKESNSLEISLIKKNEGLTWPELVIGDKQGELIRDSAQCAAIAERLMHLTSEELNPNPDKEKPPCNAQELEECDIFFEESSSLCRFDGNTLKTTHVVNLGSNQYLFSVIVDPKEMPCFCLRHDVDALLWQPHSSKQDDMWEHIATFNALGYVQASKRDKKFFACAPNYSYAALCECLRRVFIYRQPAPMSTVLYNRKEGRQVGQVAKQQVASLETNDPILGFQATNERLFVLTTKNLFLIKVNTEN
UniProt Q96H55, whole entry: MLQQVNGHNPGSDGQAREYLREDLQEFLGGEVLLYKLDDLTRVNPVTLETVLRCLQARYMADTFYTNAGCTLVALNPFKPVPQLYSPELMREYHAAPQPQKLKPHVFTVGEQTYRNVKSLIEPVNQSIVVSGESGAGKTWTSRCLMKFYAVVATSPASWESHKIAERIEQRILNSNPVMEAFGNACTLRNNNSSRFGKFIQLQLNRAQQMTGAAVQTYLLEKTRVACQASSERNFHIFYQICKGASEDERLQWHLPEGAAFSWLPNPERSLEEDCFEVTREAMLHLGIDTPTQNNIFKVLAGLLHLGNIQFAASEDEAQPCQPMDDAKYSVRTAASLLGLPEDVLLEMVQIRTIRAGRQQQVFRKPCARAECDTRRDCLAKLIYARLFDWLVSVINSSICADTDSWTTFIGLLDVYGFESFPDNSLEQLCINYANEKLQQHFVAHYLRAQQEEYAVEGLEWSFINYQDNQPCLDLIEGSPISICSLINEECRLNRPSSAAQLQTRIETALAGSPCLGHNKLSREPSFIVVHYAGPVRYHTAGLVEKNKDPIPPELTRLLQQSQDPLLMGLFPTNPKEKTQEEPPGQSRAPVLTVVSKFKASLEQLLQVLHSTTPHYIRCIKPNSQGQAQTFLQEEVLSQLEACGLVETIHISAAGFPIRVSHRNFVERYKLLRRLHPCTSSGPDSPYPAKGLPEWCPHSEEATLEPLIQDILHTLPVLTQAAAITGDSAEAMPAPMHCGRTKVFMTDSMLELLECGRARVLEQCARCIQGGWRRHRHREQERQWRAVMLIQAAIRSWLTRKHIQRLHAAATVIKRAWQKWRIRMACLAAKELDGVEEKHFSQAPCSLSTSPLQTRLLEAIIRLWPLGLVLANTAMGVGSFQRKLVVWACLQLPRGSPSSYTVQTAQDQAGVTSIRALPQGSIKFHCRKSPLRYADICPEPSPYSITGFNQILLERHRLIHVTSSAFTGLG
UniProt Q96RL7: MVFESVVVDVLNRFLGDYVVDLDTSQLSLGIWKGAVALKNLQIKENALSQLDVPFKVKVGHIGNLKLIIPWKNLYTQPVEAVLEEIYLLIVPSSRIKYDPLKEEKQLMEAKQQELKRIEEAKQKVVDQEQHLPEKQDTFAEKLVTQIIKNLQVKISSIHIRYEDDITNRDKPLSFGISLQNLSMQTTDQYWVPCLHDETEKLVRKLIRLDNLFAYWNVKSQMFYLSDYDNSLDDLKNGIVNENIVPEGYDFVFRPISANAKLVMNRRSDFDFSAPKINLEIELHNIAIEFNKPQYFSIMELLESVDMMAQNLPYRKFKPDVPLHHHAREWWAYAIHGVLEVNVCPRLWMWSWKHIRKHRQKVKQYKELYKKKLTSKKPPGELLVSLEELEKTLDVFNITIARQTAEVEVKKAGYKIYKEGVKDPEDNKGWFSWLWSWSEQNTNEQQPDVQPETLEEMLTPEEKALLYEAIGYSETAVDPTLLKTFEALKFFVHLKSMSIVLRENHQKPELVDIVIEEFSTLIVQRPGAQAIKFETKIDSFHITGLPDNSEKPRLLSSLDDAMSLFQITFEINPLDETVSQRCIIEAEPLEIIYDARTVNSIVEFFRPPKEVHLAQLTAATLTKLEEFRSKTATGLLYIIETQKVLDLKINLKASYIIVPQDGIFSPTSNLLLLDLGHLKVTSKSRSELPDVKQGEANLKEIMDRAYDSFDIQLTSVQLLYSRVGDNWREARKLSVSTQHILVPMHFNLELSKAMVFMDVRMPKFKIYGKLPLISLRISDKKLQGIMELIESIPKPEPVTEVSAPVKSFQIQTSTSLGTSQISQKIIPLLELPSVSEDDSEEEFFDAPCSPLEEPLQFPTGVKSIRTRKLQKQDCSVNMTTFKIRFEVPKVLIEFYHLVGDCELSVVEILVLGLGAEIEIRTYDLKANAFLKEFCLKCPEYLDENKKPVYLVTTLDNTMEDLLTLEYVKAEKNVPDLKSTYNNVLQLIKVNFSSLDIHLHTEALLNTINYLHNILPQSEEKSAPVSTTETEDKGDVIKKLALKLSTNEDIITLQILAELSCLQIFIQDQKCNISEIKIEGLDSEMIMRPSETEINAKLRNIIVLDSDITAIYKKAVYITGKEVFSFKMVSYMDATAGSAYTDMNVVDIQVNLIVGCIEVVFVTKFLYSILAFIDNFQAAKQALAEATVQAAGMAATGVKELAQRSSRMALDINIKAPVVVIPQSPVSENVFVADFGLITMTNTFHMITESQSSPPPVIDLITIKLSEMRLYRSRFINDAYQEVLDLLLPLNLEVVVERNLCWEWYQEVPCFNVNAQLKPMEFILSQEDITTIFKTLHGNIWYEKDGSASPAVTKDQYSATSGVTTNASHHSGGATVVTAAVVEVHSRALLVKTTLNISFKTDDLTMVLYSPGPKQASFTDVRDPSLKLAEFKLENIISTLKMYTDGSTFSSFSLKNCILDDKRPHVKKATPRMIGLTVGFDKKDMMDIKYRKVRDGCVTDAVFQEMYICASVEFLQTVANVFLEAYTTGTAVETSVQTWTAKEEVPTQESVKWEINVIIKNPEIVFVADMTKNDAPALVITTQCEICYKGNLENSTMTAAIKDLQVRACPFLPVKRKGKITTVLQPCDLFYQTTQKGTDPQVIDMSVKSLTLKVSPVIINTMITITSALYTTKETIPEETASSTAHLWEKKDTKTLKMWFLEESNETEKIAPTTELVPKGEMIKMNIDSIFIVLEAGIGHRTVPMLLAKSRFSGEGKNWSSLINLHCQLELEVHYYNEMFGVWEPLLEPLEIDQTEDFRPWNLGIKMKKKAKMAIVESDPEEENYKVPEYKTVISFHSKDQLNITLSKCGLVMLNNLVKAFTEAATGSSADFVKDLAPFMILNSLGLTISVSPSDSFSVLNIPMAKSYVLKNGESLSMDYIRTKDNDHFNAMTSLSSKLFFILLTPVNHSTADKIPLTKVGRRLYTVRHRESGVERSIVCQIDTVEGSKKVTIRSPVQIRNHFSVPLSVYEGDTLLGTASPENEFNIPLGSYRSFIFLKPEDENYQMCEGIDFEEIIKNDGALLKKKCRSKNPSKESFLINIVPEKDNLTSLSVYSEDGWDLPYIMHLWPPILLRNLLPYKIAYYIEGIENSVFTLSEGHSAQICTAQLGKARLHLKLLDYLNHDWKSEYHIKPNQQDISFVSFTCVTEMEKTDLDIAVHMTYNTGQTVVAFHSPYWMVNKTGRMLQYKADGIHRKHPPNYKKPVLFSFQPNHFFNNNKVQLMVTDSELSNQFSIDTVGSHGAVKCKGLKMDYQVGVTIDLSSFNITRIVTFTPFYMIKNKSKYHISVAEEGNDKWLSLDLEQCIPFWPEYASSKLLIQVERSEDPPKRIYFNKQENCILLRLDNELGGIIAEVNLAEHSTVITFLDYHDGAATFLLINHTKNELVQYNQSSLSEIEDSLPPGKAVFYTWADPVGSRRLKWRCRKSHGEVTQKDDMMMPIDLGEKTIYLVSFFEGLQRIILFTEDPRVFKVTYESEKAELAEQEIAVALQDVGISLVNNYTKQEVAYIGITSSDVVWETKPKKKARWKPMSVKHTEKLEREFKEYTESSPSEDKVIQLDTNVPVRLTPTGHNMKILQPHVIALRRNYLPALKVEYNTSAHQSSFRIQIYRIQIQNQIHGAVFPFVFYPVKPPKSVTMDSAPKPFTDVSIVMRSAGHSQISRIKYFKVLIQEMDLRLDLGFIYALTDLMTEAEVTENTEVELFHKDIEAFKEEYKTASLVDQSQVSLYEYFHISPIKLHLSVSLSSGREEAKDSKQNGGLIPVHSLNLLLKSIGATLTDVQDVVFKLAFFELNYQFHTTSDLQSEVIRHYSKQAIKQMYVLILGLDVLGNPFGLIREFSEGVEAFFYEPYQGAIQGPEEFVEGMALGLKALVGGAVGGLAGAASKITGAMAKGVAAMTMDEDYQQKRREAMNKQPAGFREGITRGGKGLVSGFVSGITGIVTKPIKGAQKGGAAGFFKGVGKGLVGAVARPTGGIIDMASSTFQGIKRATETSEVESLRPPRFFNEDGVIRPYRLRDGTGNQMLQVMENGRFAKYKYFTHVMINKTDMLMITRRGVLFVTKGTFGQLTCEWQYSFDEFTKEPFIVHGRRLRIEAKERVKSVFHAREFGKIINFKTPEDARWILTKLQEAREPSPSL
UniProt Q96HR3: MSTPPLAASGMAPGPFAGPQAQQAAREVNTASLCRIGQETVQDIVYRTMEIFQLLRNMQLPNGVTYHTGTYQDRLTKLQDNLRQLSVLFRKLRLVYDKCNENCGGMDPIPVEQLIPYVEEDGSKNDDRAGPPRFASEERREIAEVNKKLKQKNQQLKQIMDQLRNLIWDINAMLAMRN
UniProt Q96T76: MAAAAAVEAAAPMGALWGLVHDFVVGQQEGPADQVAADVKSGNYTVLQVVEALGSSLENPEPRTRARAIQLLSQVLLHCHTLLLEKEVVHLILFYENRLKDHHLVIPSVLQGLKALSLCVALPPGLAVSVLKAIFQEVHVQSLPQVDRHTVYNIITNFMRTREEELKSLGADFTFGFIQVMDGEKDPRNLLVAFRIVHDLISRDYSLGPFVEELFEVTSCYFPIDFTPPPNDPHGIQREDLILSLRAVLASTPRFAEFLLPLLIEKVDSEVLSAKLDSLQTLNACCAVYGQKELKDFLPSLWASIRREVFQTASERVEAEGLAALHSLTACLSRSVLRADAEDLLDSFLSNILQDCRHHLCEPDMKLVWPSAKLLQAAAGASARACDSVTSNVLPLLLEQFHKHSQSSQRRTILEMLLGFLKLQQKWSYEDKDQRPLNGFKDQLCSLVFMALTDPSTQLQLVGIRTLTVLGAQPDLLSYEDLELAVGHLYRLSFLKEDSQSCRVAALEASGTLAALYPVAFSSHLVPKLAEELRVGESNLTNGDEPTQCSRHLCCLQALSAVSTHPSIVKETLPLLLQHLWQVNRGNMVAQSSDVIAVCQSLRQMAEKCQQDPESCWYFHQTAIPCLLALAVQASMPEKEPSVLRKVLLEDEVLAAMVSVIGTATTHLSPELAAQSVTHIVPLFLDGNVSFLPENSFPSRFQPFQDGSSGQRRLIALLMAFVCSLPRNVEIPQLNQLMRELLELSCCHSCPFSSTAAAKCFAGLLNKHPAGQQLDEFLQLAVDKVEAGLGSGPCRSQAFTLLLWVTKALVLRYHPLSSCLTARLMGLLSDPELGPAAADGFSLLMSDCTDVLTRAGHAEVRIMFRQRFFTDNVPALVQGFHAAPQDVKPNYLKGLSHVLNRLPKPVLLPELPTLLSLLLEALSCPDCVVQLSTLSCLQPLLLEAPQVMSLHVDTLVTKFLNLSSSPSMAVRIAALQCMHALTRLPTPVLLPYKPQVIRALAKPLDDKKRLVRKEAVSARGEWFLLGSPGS

| Target | log2 fold change |
| --- | --- |
| PRRC1 (peptide sequence: GQDEASAGGIWGFIK, peptide start residue: 204) (UniProt Q96M27) | -0.109 |
| CDK5RAP1 (peptide sequence: LAAGPTFQHFLK, peptide start residue: 59) (UniProt Q96SZ6) | 0.176 |
| UniProt Q96IT1 (peptide sequence: LSFQCCECGK, peptide start residue: 520) | 0.135 |
| SLC38A2 (peptide sequence: SHYADVDPENQNFLLESNLGKK, peptide start residue: 39) (UniProt Q96QD8) | -0.231 |
| RAB40C (peptide sequence: SIRPPQSPPQNCSR, peptide start residue: 262) (UniProt Q96S21) | -0.294 |
| RSRC1 (peptide sequence: LQLVLEAAAK, peptide start residue: 187) (UniProt Q96IZ7) | -0.142 |
| UBL7 (peptide sequence: LKDDQTLDFYGIQPGSTVHVLRK, peptide start residue: 70) (UniProt Q96S82) | 0.72 |
| NUDCD1 (peptide sequence: VKRPLLDPR, peptide start residue: 11) (UniProt Q96RS6) | 0.464 |
| FMNL2 (peptide sequence: RVQESTQVLR, peptide start residue: 113) (UniProt Q96PY5) | 0.876 |
| UniProt Q96RR1 (peptide sequence: ALSPFAESSQLK, peptide start residue: 80) | -0.354 |
| MYO19 (peptide sequence: AVMLIQAAIR, peptide start residue: 786) (UniProt Q96H55) | 0.466 |
| SMC6 (peptide sequence: TAQILNLQQHLSALEK, peptide start residue: 679) (UniProt Q96SB8) | 0.273 |
| UniProt Q96JS3 (peptide sequence: TVAHLNTLK, peptide start residue: 307) | 0.466 |
| UniProt Q96MP5 (peptide sequence: VASPGGDTTGK, peptide start residue: 107) | -0.36 |
| SNX27 (peptide sequence: EFANFTFPR, peptide start residue: 210) (UniProt Q96L92) | 0.242 |
| AGAP3 (peptide sequence: GADLDREK, peptide start residue: 344) (UniProt Q96P47) | 0.424 |
| YTHDC1 (peptide sequence: SAHLTNPWNEHKPVK, peptide start residue: 458) (UniProt Q96MU7) | 0.387 |
| VPS13A (peptide sequence: ATETSEVESLRPPR, peptide start residue: 3027) (UniProt Q96RL7) | 0.339 |
| UHRF1 (peptide sequence: QSLVLPHSTK, peptide start residue: 75) (UniProt Q96T88) | 0.719 |
| MED30 (peptide sequence: QLSVLFR, peptide start residue: 84) (UniProt Q96HR3) | 0.213 |
| WNK4 (peptide sequence: LGKQPPPGIVAPAAMLSSR, peptide start residue: 1167) (UniProt Q96J92) | 0.436 |
| MMS19 (peptide sequence: ETLPLLLQHLWQVNR, peptide start residue: 571) (UniProt Q96T76) | -0.125 |
| SENP5 (peptide sequence: FCVENIR, peptide start residue: 671) (UniProt Q96HI0) | 0.351 |
| POM121 (peptide sequence: VVPAYVPTPIHPIFGGATHSAFGLK, peptide start residue: 1017) (UniProt Q96HA1) | -0.232 |
| RNPC3 (peptide sequence: LLGHTLVVEFAK, peptide start residue: 90) (UniProt Q96LT9) | -0.142 |
| EP400 (peptide sequence: ITAQQITTPGAQQK, peptide start residue: 2995) (UniProt Q96L91) | -0.385 |
| ZNF414 (peptide sequence: RPQGGSDAPSGACR, peptide start residue: 299) (UniProt Q96IQ9) | -0.4 |
| ZNF845 (peptide sequence: NSHEAPMTEIK, peptide start residue: 107) (UniProt Q96IR2) | 0.217 |

Quoted from the results shown for reference:

| Target | log2 fold change |
| --- | --- |
| PRRC1 (peptide sequence: GQDEASAGGIWGFIK, peptide start residue: 204) (UniProt Q96M27) | -0.109 |
| CDK5RAP1 (peptide sequence: LAAGPTFQHFLK, peptide start residue: 59) (UniProt Q96SZ6) | 0.176 |

Source: the supplement of paper PMC12819154, “High-throughput peptide-centric local stability assay extends protein–ligand identification to membrane proteins, tissues and bacteria” (Nature Structural & Molecular Biology, 2025)
